# The other results are listed elsewhere or left out.
# B1: MtEccB1 (Mycobacterium tuberculosis H37Rv), O69734 (protein)
# chain: MGLRLTTKVQVSGWRFLLRRLEHAIVRRDTRMFDDPLQFYSRSIALGIVVAVLILAGAALLAYFKPQGKLGGTSLFTDRATNQLYVLLSGQLHPVYNLTSARLVLGNPANPATVKSSELSKLPMGQTVGIPGAPYATPVSAGSTSIWTLCDTVARADSTSPVVQTAVIAMPLEIDASIDPLQSHEAVLVSYQGETWIVTTKGRHAIDLTDRALTSSMGIPVTARPTPISEGMFNALPDMGPWQLPPIPAAGAPNSLGLPDDLVIGSVFQIHTDKGPQYYVVLPDGIAQVNATTAAALRATQAHGLVAPPAMVPSLVVRIAERVYPSPLPDEPLKIVSRPQDPALCWSWQRSAGDQSPQSTVLSGRHLPISPSAMNMGIKQIHGTATVYLDGGKFVALQSPDPRYTESMYYIDPQGVRYGVPNAETAKSLGLSSPQNAPWEIVRLLVDGPVLSKDAALLEHDTLPADPSPRKVPAGASGAP
# Columns and labels:
# Experiment in all cases: glycan array binding signal (z-score within array); higher = stronger binding
# Settings in all cases: glycan notation: IUPAC condensed, linker removed
# [1] = target: Fuc(a1-2)[Gal(a1-3)]Gal(b1-4)GlcNAc(b1-2)Man(a1-3)[Fuc(a1-2)[Gal(a1-3)]Gal(b1-4)GlcNAc(b1-2)Man(a1-6)]Man(b1-4)GlcNAc(b1-4)GlcNAc
# Outline: (§1)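 Arrays were curated from the Consortium for Functional Glycomics database, 3228 in total, and kept only where the protein sequence was available. Binding is expressed as a within-array Z-score. This score was averaged across arrays of the same protein sequence at different concentrations or buffers and across linkers, and negative values can be read as non-binding.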
# [2] = target: Fuc(a1-2)[Gal(a1-3)]Gal(b1-4)GlcNAc(b1-2)Man(a1-3)[Fuc(a1-2)[Gal(a1-3)]Gal(b1-4)GlcNAc(b1-2)Man(a1-6)]Man(b1-4)GlcNAc(b1-4)[Fuc(a1-6)]GlcNAc
# Outline: as §1
# [3] = target: Fuc(a1-2)[Gal(a1-3)]Gal(b1-4)GlcNAc(b1-3)GalNAc
# Outline: as §1
# [4] = target: Fuc(a1-2)[Gal(a1-3)]Gal(b1-4)GlcNAc(b1-3)[Fuc(a1-2)[Gal(a1-3)]Gal(b1-4)GlcNAc(b1-6)]GalNAc
# Outline: as §1
# [5] = target: Fuc(a1-2)[Gal(a1-3)]Gal(b1-4)GlcNAc(b1-6)GalNAc
# Outline: as §1
# [6] = target: Fuc(a1-2)[Gal(a1-3)]Gal(b1-4)[Fuc(a1-3)]Glc
# Outline: as §1
# [7] = target: Fuc(a1-2)[Gal(a1-3)]Gal(b1-4)[Fuc(a1-3)]GlcNAc
# Outline: as §1
# [8] = target: Fuc(a1-2)[Gal(a1-3)]Gal(b1-4)[Fuc(a1-3)]GlcNAc(b1-3)GalNAc
# Outline: as §1
# [9] = target: Fuc(a1-2)[Gal(a1-4)]Gal(b1-4)GlcNAc
# Outline: as §1
# [10] = target: Fuc(a1-2)[GalNAc(a1-3)]Gal
# Outline: as §1
# [11] = target: Fuc(a1-2)[GalNAc(a1-3)]Gal(b1-3)GalNAc(a1-3)[Fuc(a1-2)]Gal(b1-4)GlcNAc
# Outline: as §1
# [12] = target: Fuc(a1-2)[GalNAc(a1-3)]Gal(b1-3)GalNAc(b1-3)Gal(a1-4)Gal(b1-4)Glc
# Outline: as §1
# [13] = target: Fuc(a1-2)[GalNAc(a1-3)]Gal(b1-3)GlcNAc
# Outline: as §1
# [14] = target: Fuc(a1-2)[GalNAc(a1-3)]Gal(b1-3)GlcNAc(b1-2)Man(a1-3)[Fuc(a1-2)[GalNAc(a1-3)]Gal(b1-3)GlcNAc(b1-2)Man(a1-6)]Man(b1-4)GlcNAc(b1-4)GlcNAc
# Outline: as §1
# [15] = target: Fuc(a1-2)[GalNAc(a1-3)]Gal(b1-3)GlcNAc(b1-2)Man(a1-3)[Fuc(a1-2)[GalNAc(a1-3)]Gal(b1-3)GlcNAc(b1-2)Man(a1-6)]Man(b1-4)GlcNAc(b1-4)[Fuc(a1-6)]GlcNAc
# Outline: as §1
# [16] = target: Fuc(a1-2)[GalNAc(a1-3)]Gal(b1-3)GlcNAc(b1-3)GalNAc
# Outline: as §1
# [17] = target: Fuc(a1-2)[GalNAc(a1-3)]Gal(b1-3)GlcNAc(b1-6)GalNAc
# Outline: as §1
# [18] = target: Fuc(a1-2)[GalNAc(a1-3)]Gal(b1-4)Glc
# Outline: as §1
# [19] = target: Fuc(a1-2)[GalNAc(a1-3)]Gal(b1-4)GlcNAc
# Outline: as §1
# [20] = target: Fuc(a1-2)[GalNAc(a1-3)]Gal(b1-4)GlcNAc(b1-2)Man
# Outline: as §1
# [21] = target: Fuc(a1-2)[GalNAc(a1-3)]Gal(b1-4)GlcNAc(b1-2)Man(a1-3)[Fuc(a1-2)[GalNAc(a1-3)]Gal(b1-4)GlcNAc(b1-2)Man(a1-6)]Man(b1-4)GlcNAc(b1-4)GlcNAc
# Outline: as §1
# [22] = target: Fuc(a1-2)[GalNAc(a1-3)]Gal(b1-4)GlcNAc(b1-2)Man(a1-3)[Fuc(a1-2)[GalNAc(a1-3)]Gal(b1-4)GlcNAc(b1-2)Man(a1-6)]Man(b1-4)GlcNAc(b1-4)[Fuc(a1-6)]GlcNAc
# Outline: as §1
# [23] = target: Fuc(a1-2)[GalNAc(a1-3)]Gal(b1-4)GlcNAc(b1-3)Gal(b1-4)GlcNAc
# Outline: as §1
# [24] = target: Fuc(a1-2)[GalNAc(a1-3)]Gal(b1-4)GlcNAc(b1-3)Gal(b1-4)GlcNAc(b1-3)Gal(b1-4)GlcNAc
# Outline: as §1
# [25] = target: Fuc(a1-2)[GalNAc(a1-3)]Gal(b1-4)GlcNAc(b1-3)GalNAc
# Outline: as §1
# [26] = target: Fuc(a1-2)[GalNAc(a1-3)]Gal(b1-4)GlcNAc(b1-3)[Fuc(a1-2)[GalNAc(a1-3)]Gal(b1-4)GlcNAc(b1-6)]GalNAc
# Outline: as §1
# [27] = target: Fuc(a1-2)[GalNAc(a1-3)]Gal(b1-4)GlcNAc(b1-6)GalNAc
# Outline: as §1
# [28] = target: Fuc(a1-2)[GalNAc(a1-3)]Gal(b1-4)[Fuc(a1-3)]GlcNAc
# Outline: as §1
# [29] = target: Fuc(a1-2)[GalNAc(a1-3)]Gal(b1-4)[Fuc(a1-3)]GlcNAc(b1-3)GalNAc
# Outline: as §1
# [30] = target: Fuc(a1-2)[GalNAc(a1-4)]Gal(b1-4)GlcNAc
# Outline: as §1
# [31] = target: Fuc(a1-2)[GalNAc(b1-3)]Gal
# Outline: as §1
# Fuc(a1-3)GlcNAc = target: Fuc(a1-3)GlcNAc
# Outline: as §1
# [32] = target: Fuc(a1-3)[Gal(b1-4)]Glc6S
# Outline: as §1
# [33] = target: Fuc(a1-3)[Gal(b1-4)]GlcNAc
# Outline: as §1
# [34] = target: Fuc(a1-3)[Gal(b1-4)]GlcNAc(b1-2)Man
# Outline: as §1
# [35] = target: Fuc(a1-3)[Gal(b1-4)]GlcNAc(b1-2)Man(a1-3)[Fuc(a1-3)[Gal(b1-4)]GlcNAc(b1-2)Man(a1-6)]Man(b1-4)GlcNAc(b1-4)GlcNAc
# Outline: as §1
# [36] = target: Fuc(a1-3)[Gal(b1-4)]GlcNAc(b1-2)Man(a1-3)[Fuc(a1-3)[Gal(b1-4)]GlcNAc(b1-2)Man(a1-6)]Man(b1-4)GlcNAc(b1-4)[Fuc(a1-6)]GlcNAc
# Outline: as §1
# [37] = target: Fuc(a1-3)[Gal(b1-4)]GlcNAc(b1-3)Gal(b1-3)[Fuc(a1-4)]GlcNAc
# Outline: as §1
# [38] = target: Fuc(a1-3)[Gal(b1-4)]GlcNAc(b1-3)Gal(b1-4)[Fuc(a1-3)]GlcNAc
# Outline: as §1
# [39] = target: Fuc(a1-3)[Gal(b1-4)]GlcNAc(b1-3)Gal(b1-4)[Fuc(a1-3)]GlcNAc(b1-3)Gal(b1-4)[Fuc(a1-3)]GlcNAc
# Outline: as §1
# [40] = target: Fuc(a1-3)[Gal(b1-4)]GlcNAc(b1-3)GalNAc
# Outline: as §1
# [41] = target: Fuc(a1-3)[Gal(b1-4)]GlcNAc(b1-6)GalNAc
# Outline: as §1
# [42] = target: Fuc(a1-3)[Gal(b1-4)]GlcNAc(b1-6)[Gal(b1-3)GlcNAc(b1-3)]Gal(b1-4)Glc
# Outline: as §1
# [43] = target: Fuc(a1-3)[Gal(b1-4)]GlcNAc6S
# Outline: as §1
# [44] = target: Fuc(a1-3)[Gal3S(b1-4)]Glc
# Outline: as §1
# [45] = target: Fuc(a1-3)[Gal3S(b1-4)]GlcNAc
# Outline: as §1
# [46] = target: Fuc(a1-3)[Gal3S(b1-4)]GlcNAc6S
# Outline: as §1
# [47] = target: Fuc(a1-3)[GalNAc(b1-4)]GlcNAc
# Outline: as §1
# [48] = target: Fuc(a1-3)[GalNAc(b1-4)]GlcNAc6S
# Outline: as §1
# Fuc(a1-4)GlcNAc = target: Fuc(a1-4)GlcNAc
# Outline: as §1
# Fuc(b1-3)GlcNAc = target: Fuc(b1-3)GlcNAc
# Outline: as §1
# Gal(a1-2)Gal = target: Gal(a1-2)Gal
# Outline: as §1
# Gal(a1-3)Gal = target: Gal(a1-3)Gal
# Outline: as §1
# Gal(a1-3)Gal(b1-3)GlcNAc = target: Gal(a1-3)Gal(b1-3)GlcNAc
# Outline: as §1
# [49] = target: Gal(a1-3)Gal(b1-3)GlcNAc(b1-2)Man
# Outline: as §1
# [50] = target: Gal(a1-3)Gal(b1-3)GlcNAc(b1-2)Man(a1-3)[Gal(a1-3)Gal(b1-3)GlcNAc(b1-2)Man(a1-6)]Man(b1-4)GlcNAc(b1-4)GlcNAc
# Outline: as §1
# [51] = target: Gal(a1-3)Gal(b1-3)GlcNAc(b1-3)GalNAc
# Outline: as §1
# [52] = target: Gal(a1-3)Gal(b1-3)GlcNAc(b1-6)GalNAc
# Outline: as §1
# [53] = target: Gal(a1-3)Gal(b1-3)[Fuc(a1-4)]GlcNAc(b1-2)Man(a1-3)[Gal(a1-3)Gal(b1-3)[Fuc(a1-4)]GlcNAc(b1-2)Man(a1-6)]Man(b1-4)GlcNAc(b1-4)GlcNAc
# Outline: as §1
# Gal(a1-3)Gal(b1-4)Glc = target: Gal(a1-3)Gal(b1-4)Glc
# Outline: as §1
binder,measurement,setting,value
B1,glycan array binding signal (z-score),[1],-0.471
same,glycan array binding signal (z-score),[2],-0.543
same,glycan array binding signal (z-score),[3],0.69
same,glycan array binding signal (z-score),[4],0.278
same,glycan array binding signal (z-score),[5],1.28
same,glycan array binding signal (z-score),[6],0.054
same,glycan array binding signal (z-score),[7],-0.345
same,glycan array binding signal (z-score),[8],0.323
same,glycan array binding signal (z-score),[9],-1.08
same,glycan array binding signal (z-score),[10],-0.459
same,glycan array binding signal (z-score),[11],-0.886
same,glycan array binding signal (z-score),[12],-1.01
same,glycan array binding signal (z-score),[13],-0.317
same,glycan array binding signal (z-score),[14],0.03
same,glycan array binding signal (z-score),[15],-1.25
same,glycan array binding signal (z-score),[16],0.901
same,glycan array binding signal (z-score),[17],-1.01
same,glycan array binding signal (z-score),[18],-0.77
same,glycan array binding signal (z-score),[19],-0.665
same,glycan array binding signal (z-score),[20],-0.757
same,glycan array binding signal (z-score),[21],0.708
same,glycan array binding signal (z-score),[22],-2.01
same,glycan array binding signal (z-score),[23],-1.03
same,glycan array binding signal (z-score),[24],-0.217
same,glycan array binding signal (z-score),[25],-0.767
same,glycan array binding signal (z-score),[26],0.434
same,glycan array binding signal (z-score),[27],-0.301
same,glycan array binding signal (z-score),[28],-0.945
same,glycan array binding signal (z-score),[29],-0.572
same,glycan array binding signal (z-score),[30],0.844
same,glycan array binding signal (z-score),[31],0.559
same,glycan array binding signal (z-score),Fuc(a1-3)GlcNAc,-1.29
same,glycan array binding signal (z-score),[32],0.72
same,glycan array binding signal (z-score),[33],-0.159
same,glycan array binding signal (z-score),[34],-0.707
same,glycan array binding signal (z-score),[35],0.033
same,glycan array binding signal (z-score),[36],0.521
same,glycan array binding signal (z-score),[37],-0.803
same,glycan array binding signal (z-score),[38],-0.952
same,glycan array binding signal (z-score),[39],0.114
same,glycan array binding signal (z-score),[40],-0.801
same,glycan array binding signal (z-score),[41],-1.29
same,glycan array binding signal (z-score),[42],0.407
same,glycan array binding signal (z-score),[43],-0.14
same,glycan array binding signal (z-score),[44],0.293
same,glycan array binding signal (z-score),[45],0.468
same,glycan array binding signal (z-score),[46],0.357
same,glycan array binding signal (z-score),[47],1.32
same,glycan array binding signal (z-score),[48],-0.813
same,glycan array binding signal (z-score),Fuc(a1-4)GlcNAc,-0.306
same,glycan array binding signal (z-score),Fuc(b1-3)GlcNAc,1.33
same,glycan array binding signal (z-score),Gal(a1-2)Gal,-0.95
same,glycan array binding signal (z-score),Gal(a1-3)Gal,-1.38
same,glycan array binding signal (z-score),Gal(a1-3)Gal(b1-3)GlcNAc,1.88
same,glycan array binding signal (z-score),[49],0.787
same,glycan array binding signal (z-score),[50],0.301
same,glycan array binding signal (z-score),[51],-0.836
same,glycan array binding signal (z-score),[52],-0.407
same,glycan array binding signal (z-score),[53],2.23
same,glycan array binding signal (z-score),Gal(a1-3)Gal(b1-4)Glc,0.359

# Reformatted with tabs: part of the list above.
binder	measurement	setting	value
B1	glycan array binding signal (z-score)	Fuc(a1-4)GlcNAc	-0.306
same	glycan array binding signal (z-score)	Fuc(b1-3)GlcNAc	1.33
same	glycan array binding signal (z-score)	Gal(a1-2)Gal	-0.95
same	glycan array binding signal (z-score)	Gal(a1-3)Gal	-1.38
same	glycan array binding signal (z-score)	Gal(a1-3)Gal(b1-3)GlcNAc	1.88
